# At least one structure is not confirmed: it was looked up by name or label, or the drawing left a doubt.
# Test system: female rats
# Assay: estrus suppression assay (duration of suppression of vaginal cornification after one subcutaneous injection)
# Type: in vivo, rats of the Sprague-Dawley strain
# Protocol: These were subjected to a biological screening programme designed to uncover new and effective sustained- release injectable contraceptives, the compounds being tested as injectable oily solutions or aqueous suspensions. The initial test was to determine the duration of suppression of estrus in female rats, with DMPA and norethisterone enanthate being used as comparison-standards. The most promising compounds were then tested in primates.
# The bioassay used to determine the duration of action of the contraceptive compositions involved measuring the suppression of estrus in female rats. The compositions were used at four dosage levels, i.e. 2, 4, 8 and 16 mg/rat.
# The long-acting properties of each formulation were determined in estrus suppression assay employing virgin, mature (180-200 g) cycling rats of the Sprague-Dawley strain purchased from Charles River Laboratories, USA. Upon receipt the animals were smeared daily for cyclicity and only those animals showing two consecutive normal cycles were used. Each animal was injected subcutaneously with 0.8 ml of the test preparation on the same day regardless of the stage of the cycle. Each compound was initially tested on ten rats. […] Duration of cornification suppression is expressed as the total number of days minus two. […]
compound,measurement,setting,value
"C#C[C@]1(OC(=O)C2CCCCC2)CC[C@H]2[C@@H]3CCC4=CC(=O)CC[C@@H]4[C@H]3CC[C@@]21CC [cyclohexylcarboxylate, reference compound]",effectiveness in words,16 mg dose,relatively ineffective
same,duration of action in words,cyclic esters of the series of Table 1 and Fig. 1,short acting
